Experimental data: PubChem BioAssay AID1347426 (Functional Genomics Laboratory (NCATS/FGL), 2020)
Hit rate of the full screen: of about 31,000 sequences, about 1,400 (4.5%) were called active.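 The calls were made as follows: active = median seed-adjusted z-score above 1 or below -1; inactive = the rest.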 The list shows a part of the results.

Assay: Novel Modifiers of Survival Motor Neuron (SMN) Protein: Gene Identification via Genome-wide siRNA Screen;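 also: luminescence tracks full-length SMN protein made from the SMN2 reporter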
Settings: HEK293T SMN2-luciferase reporter, siRNA knockdown, 72 h; actives lie on both sides
Procedure, shortened: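 Genome-wide siRNA screen (10418 genes, 3 siRNAs each, 1 pmol per well) by reverse transfection in HEK293T cells stably carrying an SMN2-luciferase reporter; luminescence after 72 hours, normalized to negative-control siRNA, log10-transformed, MAD-scored.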

Sequence	median seed-adjusted z-score
CCUCGACAGAUGAAACGCATT against MAP3K4	inactive: 0.72
GGGUAGAGGAGUUAAAGAATT against ZC3H10	inactive: -0.79
GAUUCUUGAUGGUAUCCAUTT against CDC2L6	inactive: -0.31
GGACCGGAAAGGCGACAAATT against RPH3AL	inactive: 0.21
CCAUAGAUGUCACGUUUUUTT against CHRNA5	inactive: 0
GAGAAAAUUUUGCACAGCATT against SLC25A23	inactive: 0.325
GGAUCCUCUUAUCUCAAUATT against KLHL20	inactive: -0.0828
CAAUGUCGAUGGACAGGAATT against ZNF446	inactive: 0.0496
GAAUGACCCUGUACCCUAUTT against TAF2	inactive: -0.243
AUCCGAUGGUGGUUACUGATT against MCOLN1	inactive: -0.522
CCUCCCUGCUGGUACAGAUTT against SLC2A10	inactive: -0.0407
GCAGACCAUUCACUACUAUTT against ST3GAL4	inactive: 0.245
GAUCUUCUCAUAUUCGGGATT against SNX8	inactive: 0.115
GAACCUGGAUCACAUAAUATT against DFFB	inactive: 0.242
CCAGGUUGAUGAAGCUAAUTT against UBE2L3	inactive: 0.378
UGAUGUACCCUAGCCCGCATT against SRF	inactive: -0.393
CUUGGAAACUAGACCCAAATT against ZNF135	inactive: 0.038
UCAAAGACAUCGACAAGAATT against HTRA3	inactive: 0.291
GGCUCUACCUGCACUAUGATT against TRIM50	inactive: 0
ACUACUUCCUGAACCGGGATT against CD2BP2	inactive: -0.455
AGCUCUAUCUGGUGUUUGATT against CDK3	inactive: 0.000485
CAUUUUUCAUCGAAUAGUATT against PPIL6	inactive: -0.215

Sequence	median seed-adjusted z-score
GCCUUGUGCUGUCAAUAAATT against CRIP2	inactive: -0.226
GCCGGAAACAAAUACGUGATT against ZNF677	inactive: -0.441
GCUUGAGCCUGUUAAAACUTT against UTP14A	inactive: -0.366
CAUUAUCUCGUUUCCGGAATT against IFNGR2	inactive: 0.148
CAGUCGAUGUCCAUGAAUATT against LRRN1	inactive: -0.407
GAGCUUCAACUAACAGGAATT against NUPL2	inactive: 0.134
GGACAAAGGCUGACAGACUTT against SNAI1	inactive: 0.0196
GCUCGGACGCAAUCUGUGATT against TNFRSF4	inactive: 0.311
GGGUUAAUGAUGCAAUGAATT against COQ9	inactive: -0.787
GGAGGAUCCGAUGCAGAUATT against C1S	inactive: -0.561
GAAGCAGAGUGACUCCUUATT against GPR114	inactive: 0.805
GAAGGAACCUUUUGCGGCATT against LHX9	inactive: 0.157
UCAUCGUCGUGGGCUGCAATT against RHOD	inactive: 0
GAAUCCAGCUGGACUAUGATT against SQRDL	inactive: 0.455
GCUAUGUUGAGUUACGUUATT against NDUFS3	inactive: -0.54
GCUCUUUGCAAUUCCUAUUTT against FMO3	inactive: -0.0769
GAAGGACAUUUAGGAGACATT against LPPR2	inactive: 0.255
GGGACUUUUGCAAAGGAAATT against CLEC5A	active: -1.07
GAGAUACACUGCGAAAAGATT against STK3	inactive: 0.108
CCUCAUUUGUCUACACCAUTT against RAD51L1	inactive: 0
CCAACUGGUUUAUGAAGAATT against TAGLN	inactive: 0.0485
GAAAUUUGCGCACCAUAUUTT against MGAT4C	inactive: 0.187

Sequence	median seed-adjusted z-score
CAUCGAAUCCUGCACGUGUTT against WNT1	inactive: 0
GUCCAUUAAUAAUAAAGCATT against PABPC3	inactive: -0.314
GACUCUGUAUUAUACAGCATT against WARS2	inactive: 0.21
AGACUUUAAUGGUAACCGUTT against FCN3	inactive: -0.112
GAAGAUCAUUAGAUUUCUATT against SULT1B1	inactive: -0.115
GAACCAUGACGGUACCUUUTT against FLNC	inactive: 0.00217
GACCUAACCAGGUAGAUGATT against TEX14	inactive: -0.107
GCAGUUCCUGAAUUAGCUATT against METTL3	inactive: 0.261
GGAUUACUCUGGUAUUGCUTT against ADIPOR2	inactive: -0.614
CCCAGAAAAUUUCAUACUATT against TTC7B	inactive: 0.0338
CAGUCCCUCAGAAACCUAATT against FCER1A	inactive: -0.0293
GCACUUAACCAACUAUUCATT against TTLL11	inactive: 0.00825
CCAACUUUGUUGGUUACUATT against STYK1	inactive: 0.106
GAACGAGUCUUUGUAGUAATT against PRKD3	inactive: -0.906
GAACUAUCCGAGUGGAUCATT against RBMX2	inactive: -0.585
GCACUUAUAUGACAGCGAATT against SIM1	inactive: -0.0177
CCACGACUGUCACUAAGUUTT against GABRB1	inactive: 0.238
AGAAUAUAGCUGCUCAUGATT against PHF11	inactive: 0.174
CCACAGAAGGUUAAGGUGATT against NOB1	inactive: -0.0844
GAAGUAUGAAGAAGAAGUATT against KRT83	active: 1.15
GACUUAUCCAUUAAGAUCATT against PDK3	inactive: 0.232
CAUUCGUUCUCUCAAUAAATT against CYP3A7	inactive: -0.107

Sequence	median seed-adjusted z-score
GAAGACGAAUGUAAAGGUATT against SMC6	inactive: 0.227
GGCAAGUUCUCCUUCGACATT against ALDH3B1	inactive: 0.148
CUACGACGCGGAGAACAAATT against PRTN3	inactive: -0.49
CACUUGAUGCGUACAAAGATT against NPY1R	inactive: 0.76
GGUGGAUUACGAUCGAGCATT against PAK7	inactive: -0.202
GCACCAAAAUGCAAGAGAATT against NT5C1B	inactive: 0.0594
GGAUCAUCUGGAAUAGGAATT against CLPB	inactive: -0.985
GAAGGUUCAGUUUCGGAAATT against ELL	inactive: -0.497
CGAACAUUCUUAAAGAACUTT against AP3M2	inactive: 0.327
AGCCUAUUGUGGUCUAUGATT against ECE1	inactive: -0.344
GAAUCUCGAUUUCAUUGAATT against SERPINB1	inactive: 0.734
GCACUGAUGAGGUAGUAGATT against SENP3	inactive: 0.543
GUUGCAAUCAAGAAGCUAATT against MAPK8	inactive: 0.316
CCUACUAUGAUGUUAGUAATT against SCGN	inactive: -0.0164
CCAGCUAGAUUGGGAUGAATT against CLK4	inactive: -0.201
CAUCCAUUUGUCUUGCAAATT against GTF2F2	active: -1.14
GGACUACCAUGUAUCCCUATT against SOS2	inactive: 0.3
GGAUGAGAGUUCAAGACGATT against INPP4A	inactive: 0.379
GGAUUUCGUUAAAACACGATT against PARD3	inactive: -0.116
GCUUCACCCUGGCUAGAAATT against ECHDC2	inactive: -0.0827
GUUGAGGUCUGGUAACAGATT against TMED1	inactive: 0
GCCGCUUCUUCAAUGCCUUTT against AGRP	inactive: 0.206

Sequence	median seed-adjusted z-score
CCUGCGUCAUCGUUUGCUATT against FZD9	inactive: -0.0532
GUAUCAGCAUUGAUAGAUATT against GPR21	inactive: 0.246
GGCUUUCUUUGGGAGCAGUTT against GCS1	inactive: 0.819
GCGAUUUUCUUACAGUCGATT against USP15	inactive: -0.405
GGAUUGGUCUGAGGAACAATT against KLRG1	inactive: -0.0324
GGGUGGAUCAUGUUAUGGATT against NEIL3	inactive: 0.0736
GCACUAUCCUCUUAGAGAATT against SFRS2	inactive: 0.263
GGAAUUAAGCCUUCCCAGATT against ZNF81	inactive: 0.178
GCUACAGGCUUUCUACUUATT against UBE2G1	inactive: 0.174
CAAGGAUCAGUUACGGAAATT against APP	inactive: 0.0204
GUUCUGUAAUCGAAGACAATT against POU3F4	inactive: -0.314
CCAUGUCCAGUGUCACGAATT against GALNTL5	inactive: -0.363
GGCUAUAGGGUGUAUAUUUTT against CDK8	active: -1.47
GCACAGUUAUAGUGAUCAATT against EMR1	inactive: 0.255
GCAGCUCUCCUAUUAGUAATT against DMRT1	inactive: 0
GGAGAGAGCAGUUUCAACATT against HSPB8	inactive: 0.207
CGAGUAGAUUAUAAGUGUATT against CD46	inactive: -0.0278
GUUCCAAACCUGUUCAUUUTT against GRPR	inactive: 0.121
GGACCAAAAUACAUGAGGATT against ELOVL5	inactive: -0.734
ACAACUUGGAGUAUCCUUUTT against ZNF480	inactive: -0.164

28 consecutive entries from above:
Sequence	median seed-adjusted z-score
CCAGCUAGAUUGGGAUGAATT against CLK4	inactive: -0.201
CAUCCAUUUGUCUUGCAAATT against GTF2F2	active: -1.14
GGACUACCAUGUAUCCCUATT against SOS2	inactive: 0.3
GGAUGAGAGUUCAAGACGATT against INPP4A	inactive: 0.379
GGAUUUCGUUAAAACACGATT against PARD3	inactive: -0.116
GCUUCACCCUGGCUAGAAATT against ECHDC2	inactive: -0.0827
GUUGAGGUCUGGUAACAGATT against TMED1	inactive: 0
GCCGCUUCUUCAAUGCCUUTT against AGRP	inactive: 0.206
CCUGCGUCAUCGUUUGCUATT against FZD9	inactive: -0.0532
GUAUCAGCAUUGAUAGAUATT against GPR21	inactive: 0.246
GGCUUUCUUUGGGAGCAGUTT against GCS1	inactive: 0.819
GCGAUUUUCUUACAGUCGATT against USP15	inactive: -0.405
GGAUUGGUCUGAGGAACAATT against KLRG1	inactive: -0.0324
GGGUGGAUCAUGUUAUGGATT against NEIL3	inactive: 0.0736
GCACUAUCCUCUUAGAGAATT against SFRS2	inactive: 0.263
GGAAUUAAGCCUUCCCAGATT against ZNF81	inactive: 0.178
GCUACAGGCUUUCUACUUATT against UBE2G1	inactive: 0.174
CAAGGAUCAGUUACGGAAATT against APP	inactive: 0.0204
GUUCUGUAAUCGAAGACAATT against POU3F4	inactive: -0.314
CCAUGUCCAGUGUCACGAATT against GALNTL5	inactive: -0.363
GGCUAUAGGGUGUAUAUUUTT against CDK8	active: -1.47
GCACAGUUAUAGUGAUCAATT against EMR1	inactive: 0.255
GCAGCUCUCCUAUUAGUAATT against DMRT1	inactive: 0
GGAGAGAGCAGUUUCAACATT against HSPB8	inactive: 0.207
CGAGUAGAUUAUAAGUGUATT against CD46	inactive: -0.0278
GUUCCAAACCUGUUCAUUUTT against GRPR	inactive: 0.121
GGACCAAAAUACAUGAGGATT against ELOVL5	inactive: -0.734
ACAACUUGGAGUAUCCUUUTT against ZNF480	inactive: -0.164
